Data as given in patent US10441568B2, “Nitroxide radicals for the treatment of diseases of the respiratory tract” (priority 2015, dated 2019).
At least one compound was matched to its structure with a doubt left.

Test system: 3-nitrotyrosine (3-NT)
Test: Protein nitration (3-nitrotyrosine) in lung homogenates, OVA asthma model
Type: in vivo, mice
Details: dexamethasone 1 mg/kg IP, FIG. 8
Experimental: Bronchoalveolar lavage (BAL) fluid (also referred to herein as “BALf”) and bronchial submucosal inflammation are characteristic features of asthma. Mice were euthanized with an overdose of 50 mg/kg pentobarbital and ice-cold phosphate buffer saline (PBS) (0.6 ml) was instilled into the lungs. BAL fluid was obtained by three aspirations via tracheal cannulation, centrifuged, and the supernatant collected and stored at −70° C. Cell pellets were re-suspended in PBS and 100 μl aliquots placed onto slides and centrifuged (200 g, 4° C., 10 minutes) in a cytospin machine. Induction of oxidative stress was evaluated using a 2′,7′-dichlorofluorescein fluorescence assay, and total IgE, IgG2a, panel of cytokines, transforming growth factors, collagen, protein nitration and lipid peroxidation were measured using commercial kits according to the manufacturer's recommendations. A Sircol™ collagen assay kit was obtained from Biocolor Life Sciences Assays, a protein nitration assay kit was obtained from Abcam, and other assay kits were obtained from PeproTech Asia.
In order to determine whether 3-CP reduces protein nitration, a form of cell damage induced by peroxynitrite (an anion generally believed to be formed in vivo by a reaction of superoxide radical and nitric oxide), lung homogenates were assayed for 3-nitrotyrosine (3-NT) levels.

`C[C@@H]1C[C@H]2[C@@H]3CCC4=CC(=O)C=C[C@]4(C)[C@@]3(F)[C@@H](O)C[C@]2(C)[C@@]1(O)C(=O)CO` [dexamethasone, Dexamethasone, reference compound] was tested, and the “effective at inhibiting nitrotyrosine production in asthmatic animals” value was “is not”.
